Experimental data as given in PMC3795677.
No constants are given. Whether binding was seen depends on the method and setting. Binding seen in cells or lysates may run through a third protein. For part of these data: Binding can be weak; no strength is given. Tags and fused reporters may be left off the sequences shown. Values belong to the molecule of their own block, whether it stands above or below them.

Columns and labels:
Assay in all cases: FRET or BRET; spectral-shift FRET by acceptor photobleaching in live E. coli cells co-expressing an mCFP and an mYFP fusion; mYFP bleached 20 s with a 532 nm laser; an increase of the CFP signal of more than 0.5 % counts as a positive FRET pair
[1] = target: T1, EvgS-mYFP (sensory histidine kinase EvgS with C-terminal monomeric yellow fluorescent protein EYFP A206K) (E. coli) (UniProt P30855)
T1 sequence: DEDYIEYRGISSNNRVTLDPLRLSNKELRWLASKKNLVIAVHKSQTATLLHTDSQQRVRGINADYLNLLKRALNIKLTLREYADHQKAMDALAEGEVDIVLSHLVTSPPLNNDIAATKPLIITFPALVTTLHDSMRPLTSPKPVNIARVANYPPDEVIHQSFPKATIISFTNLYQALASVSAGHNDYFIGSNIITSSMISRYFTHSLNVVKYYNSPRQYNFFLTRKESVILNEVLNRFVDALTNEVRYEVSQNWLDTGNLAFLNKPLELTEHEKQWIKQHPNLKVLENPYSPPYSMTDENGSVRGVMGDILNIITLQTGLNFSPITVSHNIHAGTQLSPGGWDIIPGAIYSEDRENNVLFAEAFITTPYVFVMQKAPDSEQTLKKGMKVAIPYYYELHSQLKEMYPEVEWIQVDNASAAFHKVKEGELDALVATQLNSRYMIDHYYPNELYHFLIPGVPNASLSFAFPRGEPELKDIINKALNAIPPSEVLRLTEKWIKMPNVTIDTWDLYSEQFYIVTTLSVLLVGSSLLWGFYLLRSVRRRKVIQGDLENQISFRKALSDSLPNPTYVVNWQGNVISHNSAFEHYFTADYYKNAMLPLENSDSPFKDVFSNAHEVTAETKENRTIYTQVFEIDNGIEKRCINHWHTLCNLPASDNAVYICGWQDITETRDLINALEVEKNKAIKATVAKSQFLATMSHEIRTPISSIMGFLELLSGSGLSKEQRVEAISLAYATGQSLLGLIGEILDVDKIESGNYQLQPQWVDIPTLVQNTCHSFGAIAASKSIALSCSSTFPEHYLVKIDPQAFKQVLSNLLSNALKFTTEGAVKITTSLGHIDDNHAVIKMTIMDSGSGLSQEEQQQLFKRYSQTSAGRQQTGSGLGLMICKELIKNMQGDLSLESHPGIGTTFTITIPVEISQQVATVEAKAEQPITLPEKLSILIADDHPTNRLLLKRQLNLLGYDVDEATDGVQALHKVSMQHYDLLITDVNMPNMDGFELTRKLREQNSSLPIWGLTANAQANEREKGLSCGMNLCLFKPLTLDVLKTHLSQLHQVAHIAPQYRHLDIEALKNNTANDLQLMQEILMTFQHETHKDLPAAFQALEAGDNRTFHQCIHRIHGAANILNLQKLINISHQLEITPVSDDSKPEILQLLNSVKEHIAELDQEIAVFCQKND

[2] = target: T2, TorS-mYFP (sensory histidine kinase TorS with C-terminal monomeric yellow fluorescent protein EYFP A206K) (E. coli) (UniProt P39453)
T2 sequence: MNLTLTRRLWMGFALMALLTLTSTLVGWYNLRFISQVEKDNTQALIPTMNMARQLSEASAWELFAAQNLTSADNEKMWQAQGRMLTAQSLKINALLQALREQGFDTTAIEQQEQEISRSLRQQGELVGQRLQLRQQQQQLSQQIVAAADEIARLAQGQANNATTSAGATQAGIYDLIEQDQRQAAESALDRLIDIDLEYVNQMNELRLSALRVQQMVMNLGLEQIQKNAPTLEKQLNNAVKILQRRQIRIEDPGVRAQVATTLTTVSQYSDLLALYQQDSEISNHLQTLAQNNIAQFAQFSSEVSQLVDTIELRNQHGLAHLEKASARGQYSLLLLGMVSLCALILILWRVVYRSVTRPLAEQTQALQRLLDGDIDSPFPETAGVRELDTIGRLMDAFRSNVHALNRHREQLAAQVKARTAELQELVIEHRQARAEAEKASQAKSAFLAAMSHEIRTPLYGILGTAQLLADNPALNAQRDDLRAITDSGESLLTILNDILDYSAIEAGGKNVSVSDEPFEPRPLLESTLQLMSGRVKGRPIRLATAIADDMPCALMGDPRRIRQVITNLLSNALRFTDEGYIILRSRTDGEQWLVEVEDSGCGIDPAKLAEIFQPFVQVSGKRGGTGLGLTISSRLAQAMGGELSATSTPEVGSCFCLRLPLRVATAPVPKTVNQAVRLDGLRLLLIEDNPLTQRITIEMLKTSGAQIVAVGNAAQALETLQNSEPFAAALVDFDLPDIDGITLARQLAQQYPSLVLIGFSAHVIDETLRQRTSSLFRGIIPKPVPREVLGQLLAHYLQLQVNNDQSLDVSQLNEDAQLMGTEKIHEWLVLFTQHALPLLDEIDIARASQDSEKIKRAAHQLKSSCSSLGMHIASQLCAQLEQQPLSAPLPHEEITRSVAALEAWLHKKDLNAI

[3] = target: EvgS-mCFP (EvgS with C-terminal monomeric cyan fluorescent protein ECFP A206K) (E. coli) (UniProt P30855)

binding [1]: binds
Molecule: EvgS-mCFP (EvgS with C-terminal monomeric cyan fluorescent protein ECFP A206K) (from UniProt P30855)

binding [2]: binds
Molecule: TorS-mCFP (TorS with C-terminal monomeric cyan fluorescent protein ECFP A206K) (from UniProt P39453)

binding [3]: no binding
B1: EvgA-mYFP (response regulator EvgA fused to monomeric yellow fluorescent protein) (protein, UniProt P0ACZ4 1-204)
chain: MNAIIIDDHPLAIAAIRNLLIKNDIEILAELTEGGSAVQRVETLKPDIVIIDVDIPGVNGIQVLETLRKRQYSGIIIIVSAKNDHFYGKHCADAGANGFVSKKEGMNNIIAAIEAAKNGYCYFPFSLNRFVGSLTSDQQKLDSLSKQEISVMRYILDGKDNNDIAEKMFISNKTVSTYKSRLMEKLECKSLMDLYTFAQRNKIG
